Reference: PMC9323106
Substitutions are numbered along the chain they refer to. Names may count otherwise. Results are given in words; binding and its absence hold for the method and conditions named. Some entries that bind do so weakly or less than the wild type. Where a sequence is shown, tags or fusion partners need not be part of it.

T1: recombinant human TREX1(1-242) wild-type protomer, MBP fusion (human) (UniProt Q9NSU2)
T1 sequence: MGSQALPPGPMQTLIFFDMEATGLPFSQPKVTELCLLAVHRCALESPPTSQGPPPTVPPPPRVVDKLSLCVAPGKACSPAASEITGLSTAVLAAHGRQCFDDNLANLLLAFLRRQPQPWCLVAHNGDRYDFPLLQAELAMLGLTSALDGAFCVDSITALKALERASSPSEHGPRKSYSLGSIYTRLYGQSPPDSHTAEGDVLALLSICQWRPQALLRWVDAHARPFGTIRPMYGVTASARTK

B1: recombinant human TREX1(1-242) p.A136V protomer, His-tagged NusA fusion (enzyme, UniProt Q9NSU2-3 1-242)
chain: T1 sequence with A136V
B2: recombinant human TREX1(1-242) p.R174G protomer, His-tagged NusA fusion (enzyme, UniProt Q9NSU2-3 1-242)
chain: T1 sequence with R174G

Biological target: T1, recombinant human TREX1(1-242) wild-type protomer, MBP fusion (human)
Experiment: sequential affinity co-purification of two differently tagged protomers (amylose, then nickel column); MBP-hT1 WT and His-NusA-hT1 mutant co-expressed in E. coli Rosetta2 (DE3); amylose column (removes mutant homodimers), then nickel column (removes wild-type homodimers), one-step elution; then PreScission Protease and phosphocellulose column

| Binder | binding |
| --- | --- |
| B1 | binds |
| B2 | binds |
